The target in test [1] is GST-RhoB(17A), nucleotide free RhoB mutant (UniProt P62745). The test can be described thus: condition: only MCF-7 cells mock-treated or irradiated with 5 Gy, without EGF stimulation; pull-down; 20 ug purified GST-RhoB(17A) on glutathione-sepharose beads, incubated with clarified MCF-7 lysates for 60 min at 4 C; cells mock-treated or irradiated with 5 Gy (also 400 uM 5-FU for 72 h); immunoblot for the GEFs; only the target purified.

Amino acid sequences for entries named in this document (tags omitted). A change or cut given only in a name is not applied to a line headed by its entry. Chains listed by the source or under a name are the forms on record and can include a tag or linker.
UniProt P62745: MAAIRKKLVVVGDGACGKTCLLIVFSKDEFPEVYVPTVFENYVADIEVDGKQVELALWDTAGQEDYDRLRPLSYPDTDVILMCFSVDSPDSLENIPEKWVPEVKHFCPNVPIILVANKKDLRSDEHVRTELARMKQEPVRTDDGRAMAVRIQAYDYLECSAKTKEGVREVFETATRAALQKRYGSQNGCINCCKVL
GST-RhoB(17A), nucleotide free RhoB mutant (P62745, form named): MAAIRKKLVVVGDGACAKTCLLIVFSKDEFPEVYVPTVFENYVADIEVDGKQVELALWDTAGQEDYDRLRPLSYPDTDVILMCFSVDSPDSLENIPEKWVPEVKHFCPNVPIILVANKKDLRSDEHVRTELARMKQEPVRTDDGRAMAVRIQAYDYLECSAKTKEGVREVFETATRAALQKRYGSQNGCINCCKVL

Test [2] shares this target. The test can be described thus: pull-down; GST-RhoB(17A) on glutathione-sepharose beads with lysates of MCF-7 cells serum starved overnight and treated with 100 ng/mL EGF for 1 h (Vav2) or serum-containing medium for 1 h (p115 RhoGEF); immunoblot; only the target purified. On the technique in general: Immunoblotting shows a protein as a band on a membrane.
For test [3] the target is unchanged. The experiment in a line: pull-down; RhoB(17A) mutant pulldown with lysates of HeLa cells treated with 500 uM H2O2 for the indicated times; immunoblot for the GEFs; only the target purified.

No constants are given. Whether binding was seen depends on the method and setting. In cells and extracts the contact can be indirect. Some binding calls cover weakened binding; strength is not graded here.

B1: Vav2 (protein, UniProt P52735 1-878)
chain: MEQWRQCGRWLIDCKVLPPNHRVVWPSAVVFDLAQALRDGVLLCQLLHNLSPGSIDLKDINFRPQMSQFLCLKNIRTFLKVCHDKFGLRNSELFDPFDLFDVRDFGKVISAVSRLSLHSIAQNKGIRPFPSEETTENDDDVYRSLEELADEHDLGEDIYDCVPCEDGGDDIYEDIIKVEVQQPMIRYMQKMGMTEDDKRNCCLLEIQETEAKYYRTLEDIEKNYMSPLRLVLSPADMAAVFINLEDLIKVHHSFLRAIDVSVMVGGSTLAKVFLDFKERLLIYGEYCSHMEHAQNTLNQLLASREDFRQKVEECTLKVQDGKFKLQDLLVVPMQRVLKYHLLLKELLSHSAERPERQQLKEALEAMQDLAMYINEVKRDKETLRKISEFQSSIENLQVKLEEFGRPKIDGELKVRSIVNHTKQDRYLFLFDKVVIVCKRKGYSYELKEIIELLFHKMTDDPMNNKDVKKSHGKMWSYGFYLIHLQGKQGFQFFCKTEDMKRKWMEQFEMAMSNIKPDKANANHHSFQMYTFDKTTNCKACKMFLRGTFYQGYMCTKCGVGAHKECLEVIPPCKFTSPADLDASGAGPGPKMVAMQNYHGNPAPPGKPVLTFQTGDVLELLRGDPESPWWEGRLVQTRKSGYFPSSSVKPCPVDGRPPISRPPSREIDYTAYPWFAGNMERQQTDNLLKSHASGTYLIRERPAEAERFAISIKFNDEVKHIKVVEKDNWIHITEAKKFDSLLELVEYYQCHSLKESFKQLDTTLKYPYKSRERSASRASSRSPASCASYNFSFLSPQGLSFASQGPSAPFWSVFTPRVIGTAVARYNFAARDMRELSLREGDVVRIYSRIGGDQGWWKGETNGRIGWFPSTYVEEEGIQ
As to B1, the binding result in test [1] is listed as “no binding”; in test [2], “binds”.

B2: neuroepithelial transforming gene 1 (Net1) (natural protein, human (endogenous in MCF-7 and HeLa), UniProt Q7Z628 1-596, looked up)
chain: MEPELAAQKQPRPRRRSRRASGLSTEGATGPSADTSGSELDGRCSLRRGSSFTFLTPGPNWDFTLKRKRREKDDDVVSLSSLDLKEPSNKRVRPLARVTSLANLISPVRNGAVRRFGQTIQSFTLRGDHRSPASAQKFSSRSTVPTPAKRRSSALWSEMLDITMKESLTTREIRRQEAIYEMSRGEQDLIEDLKLARKAYHDPMLKLSIMSEEELTHIFGDLDSYIPLHEDLLTRIGEATKPDGTVEQIGHILVSWLPRLNAYRGYCSNQLAAKALLDQKKQDPRVQDFLQRCLESPFSRKLDLWSFLDIPRSRLVKYPLLLKEILKHTPKEHPDVQLLEDAILIIQGVLSDINLKKGESECQYYIDKLEYLDEKQRDPRIEASKVLLCHGELRSKSGHKLYIFLFQDILVLTRPVTRNERHSYQVYRQPIPVQELVLEDLQDGDVRMGGSFRGAFSNSEKAKNIFRIRFHDPSPAQSHTLQANDVFHKQQWFNCIRAAIAPFQSAGSPPELQGLPELHEECEGNHPSARKLTAQRRASTVSSVTQVEVDENAYRCGSGMQMAEDSKSLKTHQTQPGIRRARDKALSGGKRKETLV
notes: Net1, nuclear guanine nucleotide exchange factor, endogenous in human cancer cell lines, detected by immunoblot; source: endogenous, MCF-7 lysate; endogenous, HeLa lysate
Consider B2, for which the binding result in test [3] was “binds”.
